# Values quoted from earlier work in US20030018027A1 (priority 2001, published 2003).
# What was measured:
# [1] = tested on: ventromedial nucleus of hypothalamus (VMH); details: VMH stimulated by water absorbent polymers; cited from earlier work
# [2] = tested on: kainate receptors; details: rat; cited from earlier work
compound,measurement,setting,value
"NCCCC(=O)O [GABA, γ-aminobutyric acid]",inhibition of rat running activity caused by polymers,[1],inhibited
same,inhibition of running activity induced by kainate,[2],not inhibited
